The values below are quoted from earlier work in US20100297025A1, “Novel compositions magnetic particles covered with gem-bisphosphonate derivatives” (Guerbet., priority 2002, published 2010).

Sequences of proteins named here, by UniProt entry; tags and fusion partners are left off. Residues count along the entry.
UniProt P05106, 27-788 limits assumed: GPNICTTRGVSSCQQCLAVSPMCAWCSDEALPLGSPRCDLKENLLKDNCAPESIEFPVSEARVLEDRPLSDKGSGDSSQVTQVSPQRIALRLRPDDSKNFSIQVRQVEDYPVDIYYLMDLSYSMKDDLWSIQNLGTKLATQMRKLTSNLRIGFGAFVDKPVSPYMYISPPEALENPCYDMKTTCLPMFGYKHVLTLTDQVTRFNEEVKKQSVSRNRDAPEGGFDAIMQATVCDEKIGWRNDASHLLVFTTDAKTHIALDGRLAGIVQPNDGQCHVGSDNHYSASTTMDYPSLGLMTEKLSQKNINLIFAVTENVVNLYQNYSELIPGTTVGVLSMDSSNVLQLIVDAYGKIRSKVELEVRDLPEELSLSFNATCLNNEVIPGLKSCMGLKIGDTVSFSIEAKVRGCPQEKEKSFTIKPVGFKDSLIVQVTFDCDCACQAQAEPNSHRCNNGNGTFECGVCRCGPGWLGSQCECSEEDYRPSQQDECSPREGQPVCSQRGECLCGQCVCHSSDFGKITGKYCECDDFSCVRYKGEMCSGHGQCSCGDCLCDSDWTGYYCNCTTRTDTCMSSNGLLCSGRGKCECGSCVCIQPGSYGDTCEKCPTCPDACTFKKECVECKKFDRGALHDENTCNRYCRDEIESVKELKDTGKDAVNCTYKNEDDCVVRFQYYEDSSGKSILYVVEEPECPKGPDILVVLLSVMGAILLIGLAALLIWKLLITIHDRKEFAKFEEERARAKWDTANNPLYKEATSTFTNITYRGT
UniProt P06756, 31-1048 limits assumed: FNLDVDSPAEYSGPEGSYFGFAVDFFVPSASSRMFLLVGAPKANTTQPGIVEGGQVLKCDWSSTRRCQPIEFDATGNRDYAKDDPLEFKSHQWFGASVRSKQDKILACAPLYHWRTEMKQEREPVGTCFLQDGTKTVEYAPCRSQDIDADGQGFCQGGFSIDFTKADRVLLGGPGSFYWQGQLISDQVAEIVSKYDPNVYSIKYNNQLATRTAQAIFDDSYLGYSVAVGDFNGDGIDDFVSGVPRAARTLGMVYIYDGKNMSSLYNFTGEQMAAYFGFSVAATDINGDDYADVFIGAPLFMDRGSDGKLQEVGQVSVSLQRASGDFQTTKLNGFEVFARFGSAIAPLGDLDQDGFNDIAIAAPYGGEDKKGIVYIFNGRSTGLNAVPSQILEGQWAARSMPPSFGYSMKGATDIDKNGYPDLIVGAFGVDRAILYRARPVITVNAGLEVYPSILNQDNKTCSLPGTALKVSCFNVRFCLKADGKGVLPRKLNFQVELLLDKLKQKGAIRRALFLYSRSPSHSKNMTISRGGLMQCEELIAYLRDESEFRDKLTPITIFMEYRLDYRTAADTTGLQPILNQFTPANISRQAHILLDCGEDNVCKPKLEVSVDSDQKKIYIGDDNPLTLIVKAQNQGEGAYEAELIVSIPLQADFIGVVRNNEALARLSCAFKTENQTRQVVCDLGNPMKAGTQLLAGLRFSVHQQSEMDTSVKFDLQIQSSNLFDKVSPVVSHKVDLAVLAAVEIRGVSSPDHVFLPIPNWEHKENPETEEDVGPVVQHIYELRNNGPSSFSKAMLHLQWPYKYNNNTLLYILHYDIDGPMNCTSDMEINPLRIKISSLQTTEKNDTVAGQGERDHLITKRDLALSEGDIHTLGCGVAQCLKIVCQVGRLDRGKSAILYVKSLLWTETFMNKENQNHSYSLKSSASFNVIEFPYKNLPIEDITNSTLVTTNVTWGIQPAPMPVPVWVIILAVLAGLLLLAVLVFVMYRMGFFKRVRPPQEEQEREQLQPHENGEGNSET
UniProt P08514, 32-1039 limits assumed: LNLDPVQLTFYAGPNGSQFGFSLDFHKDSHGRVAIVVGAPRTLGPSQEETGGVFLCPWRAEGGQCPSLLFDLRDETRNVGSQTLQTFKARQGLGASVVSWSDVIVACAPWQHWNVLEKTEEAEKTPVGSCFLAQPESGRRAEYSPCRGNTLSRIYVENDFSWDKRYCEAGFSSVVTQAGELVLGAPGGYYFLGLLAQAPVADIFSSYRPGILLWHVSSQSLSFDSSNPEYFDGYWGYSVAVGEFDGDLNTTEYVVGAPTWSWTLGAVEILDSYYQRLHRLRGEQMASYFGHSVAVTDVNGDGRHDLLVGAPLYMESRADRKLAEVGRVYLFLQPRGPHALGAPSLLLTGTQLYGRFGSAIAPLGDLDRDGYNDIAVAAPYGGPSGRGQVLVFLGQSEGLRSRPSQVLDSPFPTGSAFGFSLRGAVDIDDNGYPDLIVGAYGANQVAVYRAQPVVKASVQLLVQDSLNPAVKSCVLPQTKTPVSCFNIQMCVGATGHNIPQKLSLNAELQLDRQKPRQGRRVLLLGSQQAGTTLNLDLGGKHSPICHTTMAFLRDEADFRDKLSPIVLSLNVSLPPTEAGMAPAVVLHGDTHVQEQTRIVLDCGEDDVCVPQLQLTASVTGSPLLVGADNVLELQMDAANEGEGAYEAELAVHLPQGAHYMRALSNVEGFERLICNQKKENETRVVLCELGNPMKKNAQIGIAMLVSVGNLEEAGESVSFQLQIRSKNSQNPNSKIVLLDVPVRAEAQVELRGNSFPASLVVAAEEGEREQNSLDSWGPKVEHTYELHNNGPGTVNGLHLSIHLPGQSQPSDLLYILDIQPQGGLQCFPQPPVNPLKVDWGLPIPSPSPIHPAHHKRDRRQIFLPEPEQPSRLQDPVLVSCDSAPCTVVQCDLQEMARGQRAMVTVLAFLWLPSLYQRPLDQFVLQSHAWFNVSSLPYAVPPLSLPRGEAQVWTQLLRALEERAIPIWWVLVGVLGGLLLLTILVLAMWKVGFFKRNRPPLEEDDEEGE

Structures were worked out from names or drawings and are uncertain.

The target in one data set is αvβ3 (Homo sapiens, UniProt P05106+P06756). To be noted: cited from earlier work.
A further data set deals with αIIbβ3 (Homo sapiens, UniProt P05106+P08514). To be noted: cited from earlier work.

Usually IC50 stands for the concentration that inhibits the measured activity by half. On to `CC(C)(C)[C@@H]1NC(=O)[C@H](CC(=O)O)NC(=O)[C@H](CC(=O)O)NC(=O)CNC(=O)[C@H](CCCNC(=N)N)NC(=O)c2cccc(c2)CNC1=O`, for which the half-maximal inhibitory concentration (IC50) was 0.0006 µM on αvβ3 and 14 µM at αIIbβ3.
